Data taken from US20240336649.
No signal at the amounts used counts as a negative.

Tested on: Omomyc-Myc 18 (S-aryl linked covalent dimer)
Test: EMSA
Conditions: synthetic protein

Does “CCGGCTGACACGTGGTATTAAT (double strand) [E-box DNA probe (22 bp)]” bind?
Result: no binding
